How the values were obtained:
[1] = general procedure: Boc solid-phase peptide synthesis; benzhydrylamine-polystyrene resin; diisopropylcarbodiimide (hydroxybenzotriazole for some residues); settings: whole synthesis, scale 0.5 mmole
[2] = general procedure: Boc solid-phase peptide synthesis; methylbenzhydrylamine-polystyrene resin; diisopropylcarbodiimide (hydroxybenzotriazole for some residues); settings: whole synthesis, scale 0.73 mmol

Row | Substance | isolated mass [1] | isolated mass [2]
1 | pGlu-Gln-Trp-Ala-Val-Gly-His-Leu-psi[CH2NH]-Leu-NH2 | 60 mg | 
2 | pGlu-Gln-Trp-Ala-Val-Gly-His-Sta-NH2 |  | 77 mg
3 | D-Phe-Gln-Trp-Ala-Val-Gly-His-Leu-.psi.[CH2 NH]-D-Phe-NH2 | 120 mg | 

— patent publication US5439884A (Oregon Regional Primate Research Center, priority 1992, dated 1995)
